Structures can show the parent of a compound that is named as a salt. Some of the results follow. Hit calls seldom repeat between salt and free forms of one compound.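 In K562 cells expressing nanoluciferase-fused kinases, luminescence was recorded at 4 h intervals between 2 and 18 h, normalized as percent of control with DMSO at 100% and a positive control at 0%. A significant (2 sigma) signal drop marks a time point as decreased. The authors' rule for a hit is not shown and takes in more than the number of time points.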
Legend:
Assay in all cases: kinase-Nluc reporter destabilization hit call (1 = scored as downregulated) (binary); higher = compound decreases kinase abundance
Details in all cases: K562, 2-18 h
CDK7 = CDK7 (UniProt P50613)
CDK9 = CDK9 (UniProt P50750)
CHEK2 = CHEK2 (UniProt O96017)
CSF1R = CSF1R (UniProt P07333)
CSK = CSK (UniProt P41240)
CSNK1A1 = CSNK1A1 (UniProt P48729)
CSNK1D = CSNK1D (UniProt P48730)
DYRK1B = DYRK1B (UniProt Q9Y463)
DYRK2 = DYRK2 (UniProt Q92630)
DDR1 = DDR1 (UniProt Q08345)

Amino acid sequences for entries named in this document (tags omitted). A change or cut given only in a name is not applied to a line headed by its entry.
UniProt P50613: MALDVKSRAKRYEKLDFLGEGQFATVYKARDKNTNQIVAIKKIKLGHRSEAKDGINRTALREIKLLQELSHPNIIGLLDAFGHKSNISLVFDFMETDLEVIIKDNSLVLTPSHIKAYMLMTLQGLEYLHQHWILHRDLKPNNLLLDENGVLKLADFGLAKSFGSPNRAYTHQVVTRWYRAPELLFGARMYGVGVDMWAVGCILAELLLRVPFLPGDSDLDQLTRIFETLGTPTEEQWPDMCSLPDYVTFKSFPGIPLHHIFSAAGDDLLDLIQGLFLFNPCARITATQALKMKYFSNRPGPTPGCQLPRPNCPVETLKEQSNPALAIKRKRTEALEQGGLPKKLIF
UniProt P50750, whole entry: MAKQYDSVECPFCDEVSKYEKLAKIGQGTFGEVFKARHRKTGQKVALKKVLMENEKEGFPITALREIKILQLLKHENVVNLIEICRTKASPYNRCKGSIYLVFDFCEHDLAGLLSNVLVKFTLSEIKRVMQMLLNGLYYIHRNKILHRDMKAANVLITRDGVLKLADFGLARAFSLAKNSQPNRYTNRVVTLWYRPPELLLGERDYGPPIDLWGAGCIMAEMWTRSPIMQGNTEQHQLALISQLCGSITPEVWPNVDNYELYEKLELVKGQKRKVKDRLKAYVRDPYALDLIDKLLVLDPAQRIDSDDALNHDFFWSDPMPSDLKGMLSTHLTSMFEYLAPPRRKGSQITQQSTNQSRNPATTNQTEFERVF
UniProt O96017, whole entry: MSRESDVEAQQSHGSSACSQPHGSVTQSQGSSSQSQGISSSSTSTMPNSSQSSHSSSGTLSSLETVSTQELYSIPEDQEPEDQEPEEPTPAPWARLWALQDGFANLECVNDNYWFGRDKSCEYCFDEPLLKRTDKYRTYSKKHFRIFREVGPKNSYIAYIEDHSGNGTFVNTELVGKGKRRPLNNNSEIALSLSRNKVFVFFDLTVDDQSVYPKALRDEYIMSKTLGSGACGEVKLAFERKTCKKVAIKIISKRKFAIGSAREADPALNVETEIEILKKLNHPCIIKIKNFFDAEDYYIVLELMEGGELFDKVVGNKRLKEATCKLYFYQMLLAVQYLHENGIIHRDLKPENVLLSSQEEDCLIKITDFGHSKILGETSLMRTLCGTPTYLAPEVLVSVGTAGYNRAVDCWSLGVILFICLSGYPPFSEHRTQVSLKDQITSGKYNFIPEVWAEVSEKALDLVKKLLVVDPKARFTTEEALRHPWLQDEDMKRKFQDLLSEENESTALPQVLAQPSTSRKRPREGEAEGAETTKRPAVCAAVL
UniProt P07333, whole entry: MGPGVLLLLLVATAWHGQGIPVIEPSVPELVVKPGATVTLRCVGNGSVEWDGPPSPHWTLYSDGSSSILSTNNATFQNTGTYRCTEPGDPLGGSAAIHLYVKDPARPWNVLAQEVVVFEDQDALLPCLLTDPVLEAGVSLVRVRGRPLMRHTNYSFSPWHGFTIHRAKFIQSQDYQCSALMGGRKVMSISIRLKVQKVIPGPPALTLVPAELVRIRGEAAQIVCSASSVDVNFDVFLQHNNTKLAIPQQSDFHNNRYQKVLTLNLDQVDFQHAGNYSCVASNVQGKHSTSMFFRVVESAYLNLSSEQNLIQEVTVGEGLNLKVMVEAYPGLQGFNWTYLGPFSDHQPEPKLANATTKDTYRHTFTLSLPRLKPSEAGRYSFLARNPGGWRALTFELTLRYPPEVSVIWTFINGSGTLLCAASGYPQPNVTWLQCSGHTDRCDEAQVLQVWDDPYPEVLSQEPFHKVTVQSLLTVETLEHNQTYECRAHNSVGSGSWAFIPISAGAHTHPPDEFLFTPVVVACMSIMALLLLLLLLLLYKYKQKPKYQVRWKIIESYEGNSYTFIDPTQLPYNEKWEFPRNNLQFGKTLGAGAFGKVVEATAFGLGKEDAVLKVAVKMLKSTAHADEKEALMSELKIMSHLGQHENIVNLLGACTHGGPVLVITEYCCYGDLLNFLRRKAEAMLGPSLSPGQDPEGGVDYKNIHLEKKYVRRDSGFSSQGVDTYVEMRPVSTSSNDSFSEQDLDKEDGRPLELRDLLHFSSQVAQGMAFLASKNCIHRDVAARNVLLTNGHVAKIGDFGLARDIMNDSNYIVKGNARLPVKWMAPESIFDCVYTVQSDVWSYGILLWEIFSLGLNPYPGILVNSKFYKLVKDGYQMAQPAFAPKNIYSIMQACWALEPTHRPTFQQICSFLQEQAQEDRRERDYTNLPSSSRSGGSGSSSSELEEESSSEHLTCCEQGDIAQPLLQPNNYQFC
UniProt P41240: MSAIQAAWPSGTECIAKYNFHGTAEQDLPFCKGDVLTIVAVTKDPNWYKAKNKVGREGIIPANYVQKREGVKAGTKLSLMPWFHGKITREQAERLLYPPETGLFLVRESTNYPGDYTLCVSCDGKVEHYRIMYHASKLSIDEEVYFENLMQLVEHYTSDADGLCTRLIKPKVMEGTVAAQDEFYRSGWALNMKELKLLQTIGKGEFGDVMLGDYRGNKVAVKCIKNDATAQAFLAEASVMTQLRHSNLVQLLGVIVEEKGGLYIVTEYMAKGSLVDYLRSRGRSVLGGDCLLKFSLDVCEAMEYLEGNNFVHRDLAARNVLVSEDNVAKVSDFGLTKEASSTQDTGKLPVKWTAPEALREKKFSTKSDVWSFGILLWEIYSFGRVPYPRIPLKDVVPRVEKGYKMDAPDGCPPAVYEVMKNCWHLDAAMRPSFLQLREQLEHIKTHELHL
UniProt P48729: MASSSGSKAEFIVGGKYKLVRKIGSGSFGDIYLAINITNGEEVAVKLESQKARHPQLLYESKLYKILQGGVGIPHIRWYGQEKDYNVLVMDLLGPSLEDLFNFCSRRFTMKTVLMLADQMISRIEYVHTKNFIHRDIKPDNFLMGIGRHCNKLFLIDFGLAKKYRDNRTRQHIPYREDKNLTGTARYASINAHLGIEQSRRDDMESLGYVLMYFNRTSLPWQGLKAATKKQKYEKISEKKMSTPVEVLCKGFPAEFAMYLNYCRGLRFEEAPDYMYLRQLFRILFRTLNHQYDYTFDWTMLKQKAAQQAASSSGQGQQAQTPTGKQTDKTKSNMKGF
UniProt P48730: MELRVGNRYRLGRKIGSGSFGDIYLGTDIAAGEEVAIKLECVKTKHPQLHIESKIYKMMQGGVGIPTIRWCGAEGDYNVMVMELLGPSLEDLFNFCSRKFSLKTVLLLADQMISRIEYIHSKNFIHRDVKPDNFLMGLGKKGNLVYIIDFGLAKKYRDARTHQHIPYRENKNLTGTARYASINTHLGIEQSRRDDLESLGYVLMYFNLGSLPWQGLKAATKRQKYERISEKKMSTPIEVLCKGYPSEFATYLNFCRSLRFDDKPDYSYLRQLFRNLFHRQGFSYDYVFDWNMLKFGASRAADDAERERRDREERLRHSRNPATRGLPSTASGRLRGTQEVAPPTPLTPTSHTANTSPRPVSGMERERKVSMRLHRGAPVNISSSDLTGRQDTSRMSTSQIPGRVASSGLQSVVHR
UniProt Q9Y463, whole entry, looked up: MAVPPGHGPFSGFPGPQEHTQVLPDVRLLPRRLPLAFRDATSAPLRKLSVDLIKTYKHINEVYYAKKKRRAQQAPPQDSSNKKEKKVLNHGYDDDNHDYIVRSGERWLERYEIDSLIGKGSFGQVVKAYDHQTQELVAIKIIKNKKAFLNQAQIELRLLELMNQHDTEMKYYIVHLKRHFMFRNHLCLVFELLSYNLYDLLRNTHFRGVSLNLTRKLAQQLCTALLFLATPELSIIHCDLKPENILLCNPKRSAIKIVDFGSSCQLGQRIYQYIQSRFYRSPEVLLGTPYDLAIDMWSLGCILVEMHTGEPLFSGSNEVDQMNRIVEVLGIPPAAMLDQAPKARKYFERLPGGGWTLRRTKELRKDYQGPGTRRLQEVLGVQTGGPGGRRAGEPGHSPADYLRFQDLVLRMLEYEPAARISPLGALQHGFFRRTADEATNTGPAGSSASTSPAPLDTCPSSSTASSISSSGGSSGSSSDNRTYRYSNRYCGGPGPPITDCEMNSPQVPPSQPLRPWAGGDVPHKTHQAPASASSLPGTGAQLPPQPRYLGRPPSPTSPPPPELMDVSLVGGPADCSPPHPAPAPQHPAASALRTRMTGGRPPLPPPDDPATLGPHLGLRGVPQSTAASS
UniProt Q92630: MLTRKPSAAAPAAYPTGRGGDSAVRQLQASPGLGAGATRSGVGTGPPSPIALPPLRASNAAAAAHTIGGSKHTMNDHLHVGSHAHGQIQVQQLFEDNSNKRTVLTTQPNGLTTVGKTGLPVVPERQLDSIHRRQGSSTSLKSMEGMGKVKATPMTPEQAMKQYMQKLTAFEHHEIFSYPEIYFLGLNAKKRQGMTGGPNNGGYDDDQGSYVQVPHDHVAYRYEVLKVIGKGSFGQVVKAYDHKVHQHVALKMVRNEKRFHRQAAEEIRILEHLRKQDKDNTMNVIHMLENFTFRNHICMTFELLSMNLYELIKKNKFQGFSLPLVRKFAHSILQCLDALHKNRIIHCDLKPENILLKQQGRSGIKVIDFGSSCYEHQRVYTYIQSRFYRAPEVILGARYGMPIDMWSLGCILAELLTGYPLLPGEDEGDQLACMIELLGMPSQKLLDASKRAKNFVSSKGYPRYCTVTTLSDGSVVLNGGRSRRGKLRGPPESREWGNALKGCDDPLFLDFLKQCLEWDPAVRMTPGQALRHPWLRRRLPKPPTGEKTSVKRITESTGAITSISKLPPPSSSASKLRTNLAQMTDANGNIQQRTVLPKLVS
UniProt Q08345: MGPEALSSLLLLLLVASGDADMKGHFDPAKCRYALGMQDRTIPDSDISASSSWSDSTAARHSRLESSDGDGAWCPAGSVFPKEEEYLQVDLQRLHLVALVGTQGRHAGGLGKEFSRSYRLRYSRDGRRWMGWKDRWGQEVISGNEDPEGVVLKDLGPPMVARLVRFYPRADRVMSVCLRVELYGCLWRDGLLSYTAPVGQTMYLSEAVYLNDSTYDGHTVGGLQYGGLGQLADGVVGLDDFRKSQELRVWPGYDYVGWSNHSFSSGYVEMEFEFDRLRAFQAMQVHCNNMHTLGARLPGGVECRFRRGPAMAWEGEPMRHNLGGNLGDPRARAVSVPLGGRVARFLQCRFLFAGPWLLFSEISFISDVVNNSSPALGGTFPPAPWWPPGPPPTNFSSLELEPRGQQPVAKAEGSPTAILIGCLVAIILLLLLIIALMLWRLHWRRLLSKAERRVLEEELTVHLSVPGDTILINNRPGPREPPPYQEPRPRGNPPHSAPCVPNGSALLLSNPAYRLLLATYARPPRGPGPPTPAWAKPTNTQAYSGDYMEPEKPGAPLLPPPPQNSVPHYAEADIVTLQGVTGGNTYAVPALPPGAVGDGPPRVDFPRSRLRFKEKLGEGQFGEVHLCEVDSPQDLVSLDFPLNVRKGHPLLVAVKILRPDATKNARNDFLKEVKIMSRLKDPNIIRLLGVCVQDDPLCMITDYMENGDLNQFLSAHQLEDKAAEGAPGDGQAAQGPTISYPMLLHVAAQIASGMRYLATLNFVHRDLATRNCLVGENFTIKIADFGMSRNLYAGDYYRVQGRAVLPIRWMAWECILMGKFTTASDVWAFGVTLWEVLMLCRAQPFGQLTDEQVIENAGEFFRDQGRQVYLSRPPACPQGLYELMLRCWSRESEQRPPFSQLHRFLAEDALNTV

Measured: kinase-Nluc reporter destabilization hit call

C[C@H]1Oc2cc(cnc2N)-c2c(nn(C)c2C#N)CN(C)C(=O)c2ccc(F)cc21 [Lorlatinib]
inactive: CDK7; 10 µM 0 | CDK9; 10 µM 0 | CHEK2; 10 µM 0 | CSF1R; 10 µM 0 | CSK; 10 µM 0 | CSNK1A1; 10 µM 0 | CSNK1D; 10 µM 0 | DYRK1B; 10 µM 0 | DYRK2; 10 µM 0

O=C(O)c1ccc(Nc2ncc3c(n2)-c2ccc(Cl)cc2C(c2c(F)cccc2F)=NC3)cc1
inactive: CDK7; 10 µM 0 | CHEK2; 10 µM 0 | CSF1R; 10 µM 0 | CSK; 10 µM 0 | CSNK1A1; 10 µM 0 | CSNK1D; 10 µM 0 | DYRK1B; 10 µM 0 | DYRK2; 10 µM 0

COc1cc(Nc2c(C#N)cnc3cc(OCCCN4CCN(C)CC4)c(OC)cc23)c(Cl)cc1Cl [Bosutinib]
inactive: CDK7; 2.5 µM 0 | CDK9; 2.5 µM 0 | CHEK2; 2.5 µM 0 | CSF1R; 2.5 µM 0 | CSK; 2.5 µM 0 | CSNK1A1; 2.5 µM 0 | CSNK1D; 2.5 µM 0 | DDR1; 2.5 µM 0 | DYRK1B; 2.5 µM 0 | DYRK2; 2.5 µM 0

CC1(C)CNc2cc(NC(=O)c3cccnc3NCc3ccncc3)ccc21 [Motesanib]
inactive: CDK7; 2.5 µM 0 | CDK9; 2.5 µM 0 | CHEK2; 2.5 µM 0 | CSK; 2.5 µM 0 | CSNK1A1; 2.5 µM 0 | CSNK1D; 2.5 µM 0 | DYRK1B; 2.5 µM 0 | DYRK2; 2.5 µM 0

Cc1cc(Nc2cc(N3CCN(C)CC3)nc(/C=C/c3ccccc3)n2)n[nH]1 [ENMD-2076 (Tartrate)]
inactive: CDK7; 2.5 µM 0 | CDK9; 2.5 µM 0 | CHEK2; 2.5 µM 0 | CSF1R; 2.5 µM 0 | CSK; 2.5 µM 0 | CSNK1A1; 2.5 µM 0 | CSNK1D; 2.5 µM 0 | DDR1; 2.5 µM 0 | DYRK1B; 2.5 µM 0 | DYRK2; 2.5 µM 0

Taken from the listing (two entries):
C[C@H]1Oc2cc(cnc2N)-c2c(nn(C)c2C#N)CN(C)C(=O)c2ccc(F)cc21 [Lorlatinib]
inactive: CDK7; 10 µM 0 | CDK9; 10 µM 0 | CHEK2; 10 µM 0 | CSF1R; 10 µM 0 | CSK; 10 µM 0 | CSNK1A1; 10 µM 0 | CSNK1D; 10 µM 0 | DYRK1B; 10 µM 0 | DYRK2; 10 µM 0

O=C(O)c1ccc(Nc2ncc3c(n2)-c2ccc(Cl)cc2C(c2c(F)cccc2F)=NC3)cc1
inactive: CDK7; 10 µM 0 | CHEK2; 10 µM 0 | CSF1R; 10 µM 0 | CSK; 10 µM 0 | CSNK1A1; 10 µM 0 | CSNK1D; 10 µM 0 | DYRK1B; 10 µM 0 | DYRK2; 10 µM 0

(cont.)

O=S(=O)(c1cccc2c(O)nccc12)N1CCCNCC1 [Hydroxyfasudil]
inactive: CDK7; 10 µM 0 | CDK9; 10 µM 0 | CHEK2; 10 µM 0 | CSF1R; 10 µM 0 | CSK; 10 µM 0 | CSNK1A1; 10 µM 0 | CSNK1D; 10 µM 0 | DDR1; 10 µM 0 | DYRK1B; 10 µM 0 | DYRK2; 10 µM 0

Cc1ccc(Nc2nccc(N(C)c3ccc4c(C)n(C)nc4c3)n2)cc1S(N)(=O)=O [Pazopanib (Hydrochloride)]
inactive: CDK7; 10 µM 0 | CDK9; 10 µM 0 | CHEK2; 10 µM 0 | CSK; 10 µM 0 | CSNK1A1; 10 µM 0 | CSNK1D; 10 µM 0 | DDR1; 10 µM 0 | DYRK1B; 10 µM 0 | DYRK2; 10 µM 0

CC(=O)c1c(C)c2cnc(Nc3ccc(N4CCN(C(=O)CCCCCC(=O)N[C@H](C(=O)N5C[C@H](O)C[C@H]5C(=O)NCc5ccc(-c6scnc6C)cc5)C(C)(C)C)CC4)cn3)nc2n(C2CCCC2)c1=O
inactive: CDK7; 2.5 µM 0 | CDK9; 2.5 µM 0 | CSK; 2.5 µM 0 | CSNK1A1; 2.5 µM 0 | CSNK1D; 2.5 µM 0 | DYRK1B; 2.5 µM 0 | DYRK2; 2.5 µM 0

CNC(=O)c1cc(Oc2ccc(NC(=O)Nc3ccc(Cl)c(C(F)(F)F)c3)cc2)ccn1 [Sorafenib]
inactive: CDK7; 2.5 µM 0 | CDK9; 2.5 µM 0 | CHEK2; 2.5 µM 0 | CSK; 2.5 µM 0 | CSNK1A1; 2.5 µM 0 | CSNK1D; 2.5 µM 0 | DDR1; 2.5 µM 0 | DYRK1B; 2.5 µM 0 | DYRK2; 2.5 µM 0

Cc1[nH]c(/C=C2\C(=O)Nc3ccc(F)cc32)c(C)c1C(=O)NC[C@H](O)CN1CCOCC1
inactive: CDK7; 2.5 µM 0 | CDK9; 2.5 µM 0 | CHEK2; 2.5 µM 0 | CSK; 2.5 µM 0 | CSNK1A1; 2.5 µM 0 | CSNK1D; 2.5 µM 0 | DDR1; 2.5 µM 0 | DYRK1B; 2.5 µM 0 | DYRK2; 2.5 µM 0

CC[C@@H]1C(=O)N(C)c2cnc(Nc3ccc(C(=O)NC4CCN(C)CC4)cc3OC)nc2N1C1CCCC1
inactive: CDK7; 10 µM 0 | CDK9; 10 µM 0 | CHEK2; 10 µM 0 | CSF1R; 10 µM 0 | CSK; 10 µM 0 | CSNK1A1; 10 µM 0 | DDR1; 10 µM 0 | DYRK1B; 10 µM 0 | DYRK2; 10 µM 0

C[C@@]1(C(=O)Nc2ccc(F)nc2)CCCN1c1nc(Nc2cc(C3CC3)n[nH]2)c2cccn2n1
inactive: CDK7; 10 µM 0 | CDK9; 10 µM 0 | CHEK2; 10 µM 0 | CSK; 10 µM 0 | CSNK1A1; 10 µM 0 | CSNK1D; 10 µM 0 | DYRK1B; 10 µM 0 | DYRK2; 10 µM 0

O=C(Nc1cccc(Nc2nccc(Nc3cccc(C(F)(F)F)c3)n2)c1)C1CC1 [Aurora kinase inhibitor-3]
inactive: CDK7; 2.5 µM 0 | CDK9; 2.5 µM 0 | CHEK2; 2.5 µM 0 | CSF1R; 2.5 µM 0 | CSK; 2.5 µM 0 | CSNK1A1; 2.5 µM 0 | CSNK1D; 2.5 µM 0 | DDR1; 2.5 µM 0 | DYRK1B; 2.5 µM 0 | DYRK2; 2.5 µM 0

CC1(C)CNc2cc(NC(=O)c3cccnc3NCc3ccncc3)ccc21 [Motesanib (Diphosphate)]
inactive: CDK7; 2.5 µM 0 | CDK9; 2.5 µM 0 | CHEK2; 2.5 µM 0 | CSK; 2.5 µM 0 | CSNK1A1; 2.5 µM 0 | CSNK1D; 2.5 µM 0 | DYRK1B; 2.5 µM 0 | DYRK2; 2.5 µM 0

Cc1cc2ncnn2cc1Nc1ncc2c(n1)n(C1CCOCC1)c(=O)n2C
inactive: CDK7; 10 µM 0 | CDK9; 10 µM 0 | CSNK1A1; 10 µM 0 | DYRK1B; 10 µM 0 | DYRK2; 10 µM 0

Nc1nc(Nc2ccc(S(N)(=O)=O)cc2)nn1C(=O)c1c(F)cccc1F
inactive: CDK7; 2.5 µM 0 | CDK9; 2.5 µM 0 | CHEK2; 2.5 µM 0 | CSF1R; 2.5 µM 0 | CSK; 2.5 µM 0 | CSNK1A1; 2.5 µM 0 | CSNK1D; 2.5 µM 0 | DDR1; 2.5 µM 0 | DYRK1B; 2.5 µM 0 | DYRK2; 2.5 µM 0

CCCCCC1CC1CC1CC1CCCCCCCC(=O)OC (stereo not drawn)
inactive: CDK7; 10 µM 0 | CDK9; 10 µM 0 | CHEK2; 10 µM 0 | CSF1R; 10 µM 0 | CSK; 10 µM 0 | CSNK1A1; 10 µM 0 | CSNK1D; 10 µM 0 | DDR1; 10 µM 0 | DYRK1B; 10 µM 0 | DYRK2; 10 µM 0

CC1(C)C(=O)N([C@H]2CCc3c(O)cccc32)c2nc(Nc3cccc(CN4CCCC4)c3)ncc21
inactive: CDK7; 2.5 µM 0 | CDK9; 2.5 µM 0 | CHEK2; 2.5 µM 0 | CSK; 2.5 µM 0 | CSNK1A1; 2.5 µM 0 | CSNK1D; 2.5 µM 0 | DDR1; 2.5 µM 0 | DYRK1B; 2.5 µM 0 | DYRK2; 2.5 µM 0

Reference: the supplement of paper PMC12823440, “Inhibitors supercharge kinase turnover through native proteolytic circuits” (Nature, 2025)
